Assay results taken from publication PMC12871924, “Human FASTK preferentially binds single‐stranded and G‐rich RNA”.
No constants are given. Whether binding was seen depends on the method and setting.

Target: T1, FASTK∆N1-75 (Homo sapiens, UniProt Q14296 76-549, del1-75)
T1 sequence: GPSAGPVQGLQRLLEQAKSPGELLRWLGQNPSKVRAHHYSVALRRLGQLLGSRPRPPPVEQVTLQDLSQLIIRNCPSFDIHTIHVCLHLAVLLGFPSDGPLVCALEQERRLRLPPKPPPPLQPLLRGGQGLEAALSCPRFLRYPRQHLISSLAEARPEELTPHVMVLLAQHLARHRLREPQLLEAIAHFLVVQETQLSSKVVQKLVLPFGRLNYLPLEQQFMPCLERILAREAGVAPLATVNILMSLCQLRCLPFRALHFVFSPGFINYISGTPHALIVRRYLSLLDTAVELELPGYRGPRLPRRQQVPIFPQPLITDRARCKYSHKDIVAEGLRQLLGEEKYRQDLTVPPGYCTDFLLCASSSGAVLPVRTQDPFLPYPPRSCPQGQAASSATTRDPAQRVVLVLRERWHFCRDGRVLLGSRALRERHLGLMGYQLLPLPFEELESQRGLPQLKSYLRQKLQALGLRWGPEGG
Test: SEC-MALS; 100 μL of purified protein at 5 mg/mL (~94 μM) injected on Superdex 200 Increase 10/300 GL in 1× PBS, 50 mM ammonium sulfate, 5% (v/v) glycerol, 1 mM DTT; BSA as calibration standard; both purified

B1: FASTK∆N1‐75 (domain or fragment, UniProt Q14296 76-549)
chain: T1 sequence
binding: no binding (tested: ~94 μM)
